Laboratory results from patent publication US8338472B2, “Hexahydrocyclopentyl[F]indazole carboxamides and derivatives thereof as selective glucocorticoid receptor modulators” (Merck Sharp & Dohme Corp., priority 2008, dated 2012).
Some results were stated once for a whole list of compounds, not compound by compound.

target: T1, glucocorticoid receptor (GR) (Homo sapiens, UniProt P04150); assay: Ligand binding assay (GR BIND), 3H-dexamethasone displacement in MDA-MB-453 cell lysate; conditions: read-out: IC50 in the ligand binding assay; DEX as a reference
T1 sequence (P04150 1-777): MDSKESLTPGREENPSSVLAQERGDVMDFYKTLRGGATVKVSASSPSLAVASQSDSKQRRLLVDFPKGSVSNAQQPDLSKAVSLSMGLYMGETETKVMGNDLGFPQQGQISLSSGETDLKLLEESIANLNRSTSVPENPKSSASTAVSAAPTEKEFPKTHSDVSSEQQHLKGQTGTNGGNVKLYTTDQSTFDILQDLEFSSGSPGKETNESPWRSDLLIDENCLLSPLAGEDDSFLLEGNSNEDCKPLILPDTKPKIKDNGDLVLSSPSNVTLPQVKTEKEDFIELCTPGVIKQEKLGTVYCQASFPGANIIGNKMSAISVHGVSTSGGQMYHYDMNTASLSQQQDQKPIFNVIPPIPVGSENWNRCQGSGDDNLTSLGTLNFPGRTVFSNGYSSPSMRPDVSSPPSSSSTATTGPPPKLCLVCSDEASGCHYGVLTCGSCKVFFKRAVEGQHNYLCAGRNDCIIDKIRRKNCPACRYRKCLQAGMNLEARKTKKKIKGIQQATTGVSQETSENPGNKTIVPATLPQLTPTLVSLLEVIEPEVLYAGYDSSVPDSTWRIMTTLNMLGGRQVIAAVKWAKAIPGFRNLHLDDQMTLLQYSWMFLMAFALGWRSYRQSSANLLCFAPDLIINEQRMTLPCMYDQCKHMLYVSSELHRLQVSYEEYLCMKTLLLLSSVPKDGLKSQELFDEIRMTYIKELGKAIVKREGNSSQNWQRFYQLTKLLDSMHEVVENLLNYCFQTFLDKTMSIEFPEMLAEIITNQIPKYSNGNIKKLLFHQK

IC50, < 1000 nM:
C[C@]12Cc3cnn(-c4ccc(F)cc4)c3C=C1CC[C@@H]2C(=O)N(CCO)Cc1ccccc1CS(=O)(=O)c1ccccc1 [Compound 30, (4αR,5S)-1-(4-fluorophenyl)-N-(2-hydroxyethyl)-4α-methyl-N-{2-[(phenylsulfonyl)methyl]benzyl}-1,4,4α,5,6,7-hexahydrocyclopenta[f] carboxamide]
C[C@]12Cc3cnn(-c4ccc(F)cc4)c3C=C1CC[C@@H]2C(=O)N(CCO)Cc1csc2ccc(Cl)cc12 [Compound 31, (4αR,5S)-N-[(5-chloro-1-benzothien-3-yl)methyl]-1-(4-fluorophenyl)-N-(2-hydroxyethyl)-4α-methyl-1,4,4α,5,6,7-hexahydrocyclopenta[f]indazole-5-carboxamide]
C[C@]12Cc3cnn(-c4ccc(F)cc4)c3C=C1CC[C@@H]2C(=O)N(CCO)Cc1cc(F)cc(F)c1 [Compound 32, (4αR,5S)-N-(3,5-difluorobenzyl)-1-(4-fluorophenyl)-N-(2-hydroxyethyl)-4α-methyl-1,4,4α,5,6,7-hexahydrocyclopenta[f]indazole-5-carboxamide]
C[C@]12Cc3cnn(-c4ccc(F)cc4)c3C=C1CC[C@@H]2C(=O)N(CCO)Cc1cccc(F)c1 [Compound 33, (4αR,5S)-N-(3-fluorobenzyl)-1-(4-fluorophenyl)-N-(2-hydroxyethyl)-4α-methyl-1,4,4α,5,6,7-hexahydrocyclopenta[f]indazole-5-carboxamide]
COc1cc(CN(CCO)C(=O)[C@H]2CCC3=Cc4c(cnn4-c4ccc(F)cc4)C[C@@]32C)cc(OC)c1 [Compound 34, (4αR,5S)-N-(3,5-dimethoxybenzyl)-1-(4-fluorophenyl)-N-(2-hydroxyethyl)-4α-methyl-1,4,4α,5,6,7-hexahydrocyclopenta[f]indazole-5-carboxamide]
C[C@]12Cc3cnn(-c4ccc(F)cc4)c3C=C1CC[C@@H]2C(=O)N(CCO)CCc1ccccc1 [Compound 35, (4αR,5S)-1-(4-fluorophenyl)-N-(2-hydroxyethyl)-4α-methyl-N-(2-phenylethyl)-1,4,4α,5,6,7-hexahydrocyclopenta[f]indazole-5-carboxamide]
C[C@]12Cc3cnn(-c4ccc(F)cc4)c3C=C1CC[C@@H]2C(=O)N(CCO)Cc1ccccc1 [Compound 36, (4αR,5S)-N-benzyl-1-(4-fluorophenyl)-N-(2-hydroxyethyl)-4α-methyl-1,4,4α,5,6,7-hexahydrocyclopenta[f]indazole-5-carboxamide]
CCCN(CCO)C(=O)[C@H]1CCC2=Cc3c(cnn3-c3ccc(F)cc3)C[C@@]21C [Compound 37, (4αR,5S)-1-(4-fluorophenyl)-N-(2-hydroxyethyl)-4α-methyl-N-propyl-1,4,4α,5,6,7-hexahydrocyclopenta[f]indazole-5-carboxamide]
CCCCCN(CCO)C(=O)[C@H]1CCC2=Cc3c(cnn3-c3ccc(F)cc3)C[C@@]21C [Compound 38, (4αR,5S)-1-(4-fluorophenyl)-N-(2-hydroxyethyl)-4α-methyl-N-pentyl-1,4,4α,5,6,7-hexahydrocyclopenta[f]indazole-5-carboxamide]
CCCCN(CC=O)C(=O)[C@H]1CCC2=Cc3c(cnn3-c3ccc(F)cc3)C[C@@]21C [Compound 39, (4αR,5S)-N-butyl-1-(4-fluorophenyl)-4α-methyl-N-(2-oxoethyl)-1,4,4α,5 ,6,7-hexahydrocyclopenta[f]indazole-5-carboxamide]
CCCCN(CC(C)O)C(=O)[C@H]1CCC2=Cc3c(cnn3-c3ccc(F)cc3)C[C@@]21C (stereo partly drawn) [Compound 40, (4αR,5S)-N-butyl-1-(4-fluorophenyl)-N-(2-hydroxypropyl)-4α-methyl-1,4,4α,5,6,7-hexahydrocyclopenta[f]indazole-5-carboxamide]
CN(CC#N)C(=O)[C@H]1CCC2=Cc3c(cnn3-c3ccc(F)cc3)C[C@@]21C [Compound 41, (4αR,5S)-N-(cyanomethyl)-1-(4-fluorophenyl)-N,4α-dimethyl-1,4,4α,5,6,7-hexahydrocyclopenta[f]indazole-5-carboxamide]
